According to article PMC6744489:
Results are given in words; binding and its absence hold for the method and conditions named. Binding seen in cells or lysates may run through a third protein.

Target: heterogeneous nuclear ribonucleoprotein K (HNRNPK) (human (endogenous in primary human keratinocytes)), P61978
Assay: co-IP; endogenous proteins; cells lysed in non-denaturing IP buffer (25 mM Tris-HCl pH 7.4, 150 mM NaCl, 1 mM EDTA, 1% NP-40, 5% glycerol); 3 ug antibody (HNRNPK, DDX6, RNA Pol II, CDK9 or rabbit IgG) on Protein G Dynabeads, lysate overnight at 4 °C, 6 washes, Western blot; for HNRNPK with DDX6 and with RNA Pol II the washed precipitates were split and treated +/- 100 ug/mL RNase A for 1.5 h on ice
Conditions: remark: other sources report otherwise

binding: no binding
B1: transcription termination factor, XRN2, Q9H0D6 1-950 (protein)
chain: MGVPAFFRWLSRKYPSIIVNCVEEKPKECNGVKIPVDASKPNPNDVEFDNLYLDMNGIIHPCTHPEDKPAPKNEDEMMVAIFEYIDRLFSIVRPRRLLYMAIDGVAPRAKMNQQRSRRFRASKEGMEAAVEKQRVREEILAKGGFLPPEEIKERFDSNCITPGTEFMDNLAKCLRYYIADRLNNDPGWKNLTVILSDASAPGEGEHKIMDYIRRQRAQPNHDPNTHHCLCGADADLIMLGLATHEPNFTIIREEFKPNKPKPCGLCNQFGHEVKDCEGLPREKKGKHDELADSLPCAEGEFIFLRLNVLREYLERELTMASLPFTFDVERSIDDWVFMCFFVGNDFLPHLPSLEIRENAIDRLVNIYKNVVHKTGGYLTESGYVNLQRVQMIMLAVGEVEDSIFKKRKDDEDSFRRRQKEKRKRMKRDQPAFTPSGILTPHALGSRNSPGSQVASNPRQAAYEMRMQNNSSPSISPNTSFTSDGSPSPLGGIKRKAEDSDSEPEPEDNVRLWEAGWKQRYYKNKFDVDAADEKFRRKVVQSYVEGLCWVLRYYYQGCASWKWYYPFHYAPFASDFEGIADMPSDFEKGTKPFKPLEQLMGVFPAASGNFLPPSWRKLMSDPDSSIIDFYPEDFAIDLNGKKYAWQGVALLPFVDERRLRAALEEVYPDLTPEETRRNSLGGDVLFVGKHHPLHDFILELYQTGSTEPVEVPPELCHGIQGKFSLDEEAILPDQIVCSPVPMLRDLTQNTVVSINFKDPQFAEDYIFKAVMLPGARKPAAVLKPSDWEKSSNGRQWKPQLGFNRDRRPVHLDQAAFRTLGHVMPRGSGTGIYSNAAPPPVTYQGNLYRPLLRGQAQIPKLMSNMRPQDSWRGPPPLFQQQRFDRGVGAEPLLPWNRMLQTQNAAFQPNQYQMLAGPGGYPPRRDDRGGRQGYPREGRKYPLPPPSGRYNWN
